Laboratory results published in patent publication US20180044316A1, “POTENTIATORS OF BETA-LACTAM ANTIBIOTICS” (UNIVERSITY OF NOTRE DAME DU LAC, priority 2015, published 2018).
Some results were stated once for a whole list of compounds, not compound by compound. Some compounds share one range, which may span the group rather than tell each member.

What follows are compounds tested on β-lactamase (assay: β-lactamase expression by nitrocefin assay in NRS70 culture media). Details: CBAP-induced, 7 μg/mL compound, nitrocefin hydrolysis at A500, normalized to no inhibitor.
Format: cell-based, Staphylococcus aureus NRS70
For CC(C)(C)c1ccc(-c2nc(-c3ccc(F)cc3)c(-c3ccncc3)[nH]2)cc1 [Compound 10, 2-(4-tert-Butylphenyl)-4-(4-fluorophenyl)-5-(4-pyridyl)imidazole], the “decrease of β-lactamase activity” value was 70-80%.
For CCc1ccc(-c2nc(-c3ccc(F)cc3)c(-c3ccncc3)[nH]2)cc1 [Compound 11, 2-(4-Ethylphenyl)-4-(4-fluorophenyl)-5-(4-pyridyl)imidazole], the “decrease of β-lactamase activity” value was 70-80%.
With CC(C)Cc1ccc(-c2nc(-c3ccc(F)cc3)c(-c3ccncc3)[nH]2)cc1 [Compound 12, 2-(4-iso-Butylphenyl)-4-(4-fluorophenyl)-5-(4-pyridyl)imidazole] the “decrease of β-lactamase activity” value was 70-80%.
